Test results as given in PubChem BioAssay AID540256 (National Center for Advancing Translational Sciences (NCATS), 2011).
In all, about 300,000 compounds went through this assay and about 3,700 (1.2%) were called active. The shares of active, inactive and inconclusive entries below differ from those in the screen. Calls follow the shape of the full dose curve; tested in HEK293 cells. Potencies beside an inconclusive call are fits to weak or partial responses and may not hold up.
Potency is read from the fitted curve at half-maximal effect.

Experiment: qHTS for Inhibitors of binding or entry into cells for Lassa Virus; also: nearly all actives have a fitted effect of over 50% in size
Conditions: Lassa virus pseudotype entry inhibition, cell reporter; series mostly up to 37.9 µM
For `CCCCN(CCCC)C(=S)N/N=C/c1c(C)[nH]n(-c2ccccc2)c1=O`, the Potency was inconclusive: 12.6 µM [inhibitor, partial curve, poor fit]. In the case of `COc1ccc(CN2CCc3nc(N4CCN(c5ccc(F)cc5)CC4)ncc3C2)c(OC)c1OC`, the Potency is reported as inconclusive: 7.08 µM [inhibitor, partial curve, poor fit]. For `COc1ccc(N(C(=O)c2ccco2)S(=O)(=O)c2cccs2)cc1`, the Potency was “inactive”. With `CCOCCCNC(=O)C1CCN(c2nc3ccc(Cl)cc3[nH]2)CC1` the Potency was “inactive”. In the case of `O=S(=O)(NC1CCCC1)c1ccc(S(=O)(=O)N(Cc2cccs2)CC2CCCO2)cc1` (stereo unspecified), the Potency is reported as inconclusive: 29.1 µM [inhibitor, partial curve, poor fit]. With `COc1ccc(S(=O)(=O)NC2CC(C)(C)NC(C)(C)C2)cc1C(C)C` the Potency was inconclusive: 35.5 µM [inhibitor, single point]. With `COc1ccc(-c2csc(NC(=O)CCn3cnc4ccccc4c3=O)n2)cc1OC` the Potency was inconclusive: 23.1 µM [inhibitor, partial curve, poor fit]. In the case of `CC(OC(=O)c1ccc(Cl)c(S(=O)(=O)N2CCOCC2)c1)C(=O)NC1CCCCC1C` (stereo unspecified), the Potency is reported as inconclusive: 10 µM [inhibitor, partial curve]. In the case of `COc1ccccc1CNC(=O)c1c(O)c2cc(OC)c(OC)cc2[nH]c1=O`, the Potency is reported as inconclusive: 2.31 µM [activator, partial curve, poor fit]. With `CCCOc1cc(C)c(S(=O)(=O)NCCOC)cc1C` the Potency was inconclusive: 25.9 µM [inhibitor, partial curve, poor fit]. For `Cc1cc(C)cc(-n2ncc3c2CCCC3NC(=O)c2cc(C)oc2C)c1` (stereo unspecified), the Potency was inconclusive: 35.5 µM [inhibitor, single point]. For `COc1ccc(N(CC(=O)O)S(=O)(=O)c2ccc(C)cc2)cc1Cl`, the Potency was inconclusive: 2.82 µM [inhibitor, partial curve, poor fit]. With `Cc1ccc(C(=O)Nc2cc(-c3nc4cc(Cl)ccc4o3)ccc2C)c(C)c1` the Potency was “inactive”. In the case of `Cc1cccc(Cn2c(CN3CCC(C(=O)NCc4ccccc4Cl)CC3)cc3ccccc32)c1`, the Potency is reported as inconclusive: 35.5 µM [activator, single point]. For `COc1cccc(-c2nn(C)c3sc(C(=O)NCCCN(C)Cc4ccccc4)cc23)c1`, the Potency was inconclusive: 7.94 µM [inhibitor, partial curve, poor fit]. For `Cc1cccn2c(=O)c3cc(C(=O)NCCN4CCOCC4)c(=N)n(CCCN4CCOCC4)c3nc12`, the Potency was inconclusive: 20 µM [inhibitor, single point].
